Paper doi:10.1101/2021.12.16.472925
These are yes or no findings as the source states them, for the method shown. In cells and extracts the contact can be indirect. Some results given as binding are weak or reduced against the parent protein; the word gives no strength.

Chains of the proteins cited; added tags and fusions are not shown.
UniProt P23787: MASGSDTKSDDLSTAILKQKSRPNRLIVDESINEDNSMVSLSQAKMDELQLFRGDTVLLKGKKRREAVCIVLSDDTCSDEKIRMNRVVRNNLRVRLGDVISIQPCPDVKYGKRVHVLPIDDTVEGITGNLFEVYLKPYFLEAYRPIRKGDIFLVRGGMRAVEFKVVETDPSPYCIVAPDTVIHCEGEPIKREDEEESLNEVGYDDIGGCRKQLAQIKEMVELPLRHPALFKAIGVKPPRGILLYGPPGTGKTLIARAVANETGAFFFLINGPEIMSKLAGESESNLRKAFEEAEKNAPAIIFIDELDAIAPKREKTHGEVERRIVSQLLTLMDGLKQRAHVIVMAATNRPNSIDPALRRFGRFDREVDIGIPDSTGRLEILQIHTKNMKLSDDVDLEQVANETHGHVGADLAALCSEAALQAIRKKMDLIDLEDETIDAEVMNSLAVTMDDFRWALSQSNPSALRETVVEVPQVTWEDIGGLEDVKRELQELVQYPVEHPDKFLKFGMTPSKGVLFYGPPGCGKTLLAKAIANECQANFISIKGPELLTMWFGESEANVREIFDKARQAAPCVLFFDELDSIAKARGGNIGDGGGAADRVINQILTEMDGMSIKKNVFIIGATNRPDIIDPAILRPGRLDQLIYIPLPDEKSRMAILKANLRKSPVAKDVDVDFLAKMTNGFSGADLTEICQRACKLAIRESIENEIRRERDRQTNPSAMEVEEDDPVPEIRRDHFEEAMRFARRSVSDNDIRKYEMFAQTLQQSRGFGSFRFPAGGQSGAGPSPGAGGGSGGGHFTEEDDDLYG
UniProt Q9YHZ6: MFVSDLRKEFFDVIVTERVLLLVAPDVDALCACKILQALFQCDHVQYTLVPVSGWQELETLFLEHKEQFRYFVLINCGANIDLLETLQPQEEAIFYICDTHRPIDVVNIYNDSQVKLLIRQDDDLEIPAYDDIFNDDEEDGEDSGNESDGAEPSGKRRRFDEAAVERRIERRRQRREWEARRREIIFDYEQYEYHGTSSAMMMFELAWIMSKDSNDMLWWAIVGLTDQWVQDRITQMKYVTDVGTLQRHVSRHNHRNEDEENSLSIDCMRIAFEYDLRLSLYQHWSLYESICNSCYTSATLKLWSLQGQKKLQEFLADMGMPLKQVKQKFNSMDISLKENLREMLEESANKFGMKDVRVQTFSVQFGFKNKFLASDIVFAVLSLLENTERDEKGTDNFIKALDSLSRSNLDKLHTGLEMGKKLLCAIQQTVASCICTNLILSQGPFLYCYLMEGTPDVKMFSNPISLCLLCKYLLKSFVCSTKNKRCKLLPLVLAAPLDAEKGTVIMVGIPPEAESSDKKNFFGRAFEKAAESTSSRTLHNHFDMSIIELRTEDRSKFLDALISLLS

Target: p97 segregase (Xenopus laevis (endogenous in egg extract)) (UniProt P23787)
Assay: co-IP

binding: binds weakly
Substance: Cdc45 (from UniProt Q9YHZ6 1-567)
